Our source for the Potency and cytoprotection (ATP increase) values is PubChem BioAssay AID1471 (National Center for Advancing Translational Sciences (NCATS), 2008).

In all, about 230,000 compounds went through this assay and about 310 (0.13%) were called active. About 2% were inconclusive and are not listed. Calls follow the shape of the dose curve; as a rule, active = well fitted activation curve with a large enough effect; inconclusive = small, poorly fitted or top-dose-only effect; inactive = no such curve, though single readings can be large or run the other way. The entries are a selection whose mix differs from that of the whole data set. Entries without a call were filed so in the source.
Potency is read from the fitted curve at half-maximal effect.

The nature of the experiment: qHTS Multiplex Assay to Identify Dual Action Probes in a Cell Model of Huntington: Cytoprotection (ATP). Also: nearly all actives have a fitted effect of over 45% in size.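 As to cytoprotection (ATP increase): toxic huntingtin expression switched on by the ecdysone agonist tebufenozide; % of control where 0% means no effect.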 As to conditions: PC12 HTT-Q103 induced, ATP luminescence, 40 h; cytoprotection (ATP increase): at 56.4 µM (top of the series) unless noted. A digest of the protocol:
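Cells were plated at 1500 per well in phenol red-free DMEM with 5% equine and 5% calf serum. Tebufenozide (100 nM final) and compounds were added, then ATPlite reagent, and luminescence was read.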
(In qHTS, concentration-response curves come from the screen itself.)
Turning to `Cc1ccc2nc(NC(=O)C3CCN(S(=O)(=O)c4cccs4)CC3)sc2c1`, the Potency was active: 3.55 µM.

As to `COc1ccc2c(c1)O[C@@H](c1cccc(C(F)(F)F)c1)[C@H](OC(=O)NCCOc1ccccc1)C2=O`, the cytoprotection (ATP increase) is -27.2%. Consider `CN1CCN(S(=O)C23CC4CC(CC(C4)C2)C3)CC1` (configuration not stated), for which the cytoprotection (ATP increase) came out at 315% [at 10 µM]. With `CN(C)CC/C=C1/c2ccccc2COc2ccccc21`, the cytoprotection (ATP increase) was -146%. For the molecule `CN1C(=O)C2(c3ccccc31)C1CCCC=C1C(C#N)=C(N)C2(C#N)C#N` (configuration not stated), the Potency was active: 20 µM. Turning to `N#CCCCS(=O)(=O)c1nnnn1C1CCCCC1`, the cytoprotection (ATP increase) is 50.8%.

Turning to `COc1c(C2=CC(=O)N(C)C2=O)c2c(n1C)C(=O)c1ccccc1C2=O`, the Potency was active: 14.1 µM. Regarding `Cc1ccc(OCC(=O)N2CC(C)OC(C)C2)c([N+](=O)[O-])n1` (configuration not stated), the Potency is active: 0.0501 µM. As for `COC(=O)c1c(-c2ccccc2)c[nH]c1C`, the cytoprotection (ATP increase) stood at 361% [at 10 µM]. `O=C(OCC(F)(F)F)[C@H](O)[C@@H](O)C(=O)OCC(F)(F)F`: the cytoprotection (ATP increase) was 53%.

Regarding `CC(C)(C)c1cc(/C=C(\C#N)C(N)=S)cc(C(C)(C)C)c1O`, the cytoprotection (ATP increase) was -180%.

As to `COc1ccccc1-c1nnc(Sc2nc([N+](=O)[O-])nn2C)o1`, the Potency is active: 17.8 µM. On to `CC(=O)c1ccc(-c2cccc([C@H]3[C@@H]4C=CC[C@@H](C)[C@@H]4C(=O)N3Cc3ccccc3)c2)cc1`, for which the cytoprotection (ATP increase) was -271%. Turning to `CC(C)=CCc1c(O)cc2occ(-c3ccc4c(c3)OCO4)c(=O)c2c1O`, the cytoprotection (ATP increase) was -119%.

Regarding `O=C1OCCN1C(=O)[C@H]1[C@H](c2ccccc2)C(c2ccc(F)cc2)=NN1c1ccc(Br)cc1`, the cytoprotection (ATP increase) was -119% [at 40.3 µM]. Regarding `Cc1cc(O)cc(=O)o1`, the cytoprotection (ATP increase) came to 31.4%.

In the case of `COc1ccc(OC)c(-c2ccc(C(=O)O)o2)c1`, the cytoprotection (ATP increase) was -44.8% [at 96.6 µM]. The same measure, in the same setting: with `CC1(OC(=O)c2ccco2)C(=O)C=C2C=C(c3ccc(C#N)cc3)OC=C2C1=O` (configuration not stated) the figure was 41.1%; with `Nc1ccccc1C(=O)/C=C/c1ccccc1`, 46.6%; with `Cc1ccc(C(C(=O)NCC2CCCO2)N(Cc2ccccc2)C(=O)c2ccc(-c3ccccc3)[nH]2)o1` (configuration not stated), 302% [at 1.9 µM]. Consider `COc1ccc(-c2cccc(-c3cc(=O)oc4cc(OC)c(OC)c(OC)c34)c2)cc1`, for which the cytoprotection (ATP increase) is -153%. Regarding `CCOC(=O)C1C/C(=C\C(C)=O)c2cccc(C(F)(F)F)c2O1` (configuration not stated), the cytoprotection (ATP increase) is -57.1%. On to `COc1cc(NS(=O)(=O)c2ccc(NC(=O)/C=C/c3ccc([N+](=O)[O-])cc3)cc2)ncn1`, for which the cytoprotection (ATP increase) was -56.9%. For the molecule `CCOc1ccc(-c2nc3ccc(-c4nc5ccc(N6CCN(C)CC6)cc5[nH]4)cc3[nH]2)cc1`, the cytoprotection (ATP increase) was -102%. The same measure, in the same setting: the figure for `Cc1ccc(-c2c(C)cc3oc(=O)cc(-c4ccccc4)c3c2C)cc1` is -49%. Regarding `CCCNC(=O)c1cc(-c2ccco2)on1`, the Potency was active: 1.58 µM. For the molecule `CC(C)NC(=O)CSc1nnc(-c2ccc(F)cc2)c2ccccc12`, the Potency is active: 12.6 µM. Consider `COC(=O)C1C(=O)c2c([nH]c(C(=O)OC3CCCCCC3)c2C)CC1C` (configuration not stated), for which the cytoprotection (ATP increase) is 311% [at 10 µM]. Turning to `Cc1cc(C)c2nc(SC(C)C#N)cc(C)c2c1` (configuration not stated), the Potency was active: 0.631 µM. In the case of `O=C(CSCc1ccc(C(=O)O)cc1)Nc1ccc2ccccc2c1`, the cytoprotection (ATP increase) was found to be 190% [at 10 µM].

Consider `CC(C)=CCC/C(C)=C/COc1ccc2ccc(=O)oc2c1`, for which the cytoprotection (ATP increase) was 31.2%. On the same count and under the same terms, the figure for `CC(C)(C)OC(=O)NCCCCC1=CC2=CC(=O)C(C)(O)C(=O)C2=CO1` (configuration not stated) is 37.4%. Turning to `O=C(NCCCc1ccccc1)c1cnc2n(c1=O)CCS2`, the cytoprotection (ATP increase) worked out at 263% [at 10 µM]. `O=C(Nc1cccc(O)c1)c1cccc(S(=O)(=O)N2CCCC2)c1`: the Potency was active: 2.82 µM. For the molecule `C[C@@H]1CC[C@]2(C(=O)O)CC[C@]3(C)C(=CCC4[C@@]5(C)C[C@@H](O)[C@H](O)[C@@](C)(CO)C5CC[C@]43C)C2[C@H]1C` (some centres not stated), the cytoprotection (ATP increase) was -252%. Still for that read-out and setting: the figure for `COC(=O)C(C)Sc1nc2c(c(=O)n(C)c(=O)n2C)n1Cc1cccc(C)c1` (configuration not stated) is 214% [at 10 µM]; for `COc1cc2nc(N(C)CCCNC(=O)C3CCCO3)nc(N)c2cc1OC` (configuration not stated) it is -31.1%; for `COc1cccc(-c2cc(=O)c3cc(NC(=O)c4ccc(N(C)C)cc4)ccc3[nH]2)c1` it is -290%. In the case of `Cc1cc2oc(=O)cc(-c3ccccc3)c2c(C)c1-c1cccc(N)c1`, the cytoprotection (ATP increase) was -66.3%. `O=[N+]([O-])c1cnc2ccccn12`: the Potency was active: 3.98 µM.

`NCCCCN=C(N)N`: the cytoprotection (ATP increase) is -33.9%.

As to `CC1(C)[C@H](C(=O)O)N2C(=O)C[C@H]2S1(=O)=O`, the cytoprotection (ATP increase) was -50.6%. For `COc1cc2c(cc1OC)C1(Nc3c-2c(C)nn3-c2ccccc2)C(=O)Nc2ccccc21` (configuration not stated), the Potency was active: 3.55 µM. `COc1cc(-c2nc3cnccn3c2Nc2ccc3c(c2)OCCO3)ccc1O`: the cytoprotection (ATP increase) came to 270% [at 10 µM]. With `CC(OC(=O)CCc1nc2ccccc2c(=O)[nH]1)C(=O)c1ccc(Br)cc1` (configuration not stated), the cytoprotection (ATP increase) came to 199% [at 10 µM]. The same measure, in the same setting: with `COc1cccc(NC(=S)N2CCN(Cc3ccccc3)CC2)c1` the figure was 223% [at 10 µM]; with `Cc1cccc(C(=O)N2CCC(=O)N([C@H](COCc3ccc(Cl)cc3)Cc3ccccc3)CC2)c1`, -84.2%. Turning to `O=C(/C=C/c1ccccc1)NC(NC(=S)Nc1cccc2cccnc12)C(Cl)(Cl)Cl` (configuration not stated), the cytoprotection (ATP increase) was -107%. As for `CC(=O)[C@H]1CC[C@H]2C3CC=C4C[C@@H](O)CC[C@]4(C)C3CC[C@]12C` (some centres not stated), the cytoprotection (ATP increase) was -40.2%. Take `CC(=O)OCC(=O)C1CCC2C3CC=C4CC(O)CC[C@@]4(C)C3CC[C@]12C` (some centres not stated): the cytoprotection (ATP increase) was -36.7%. Same read-out and setting: with `Cc1ccc(Nc2nc(CSc3nnc(-c4ccncc4)n3-c3ccccc3C)cs2)cc1` the figure was 147% [at 10 µM]; with `COC(=O)N[C@H](C[N+](=O)[O-])c1cccc(C)c1`, -43%. `Cc1nc2ccccc2n1C(=O)c1ccccc1[N+](=O)[O-]`: the cytoprotection (ATP increase) was found to be 241% [at 10 µM]. With `COC(=O)[C@@]1(Cc2ccc(OC)cc2)[C@H]2c3cc(C(=O)N4CCCC4)n(Cc4ccc(Cl)c(C(F)(F)F)c4)c3C[C@H]2CN1C(=O)c1ccccc1`, the Potency is active: 10 µM.

Take `COc1ccc(NS(=O)(=O)c2ccc(N/N=C/c3ccc(N4CCOCC4)cc3)c([N+](=O)[O-])c2)cc1`: the cytoprotection (ATP increase) was found to be 141% [at 10 µM]. Take `COC(=O)[C@H](Cc1ccccc1)NC(=O)O[C@H]1C(=O)c2cc(OC)ccc2O[C@@H]1c1ccc(OC)c(Br)c1`: the cytoprotection (ATP increase) was found to be 24.3%. On the same count and under the same terms, with `Fc1ccc2nc(Nc3nc4c(F)cc(F)cc4s3)sc2c1` the figure was 230% [at 10 µM].
